Test results reported in publication PMC11574364.
For at least one entry, the source does not settle the construct or the ends of the probe. For part of these data: Tags and fusion partners may be left off the protein sequences shown.

Chains of the proteins cited; added tags and fusions are not shown. Lines headed by an entry give the natural chain unless they say otherwise; changes in a name come on top.
UniProt Q3YBR2: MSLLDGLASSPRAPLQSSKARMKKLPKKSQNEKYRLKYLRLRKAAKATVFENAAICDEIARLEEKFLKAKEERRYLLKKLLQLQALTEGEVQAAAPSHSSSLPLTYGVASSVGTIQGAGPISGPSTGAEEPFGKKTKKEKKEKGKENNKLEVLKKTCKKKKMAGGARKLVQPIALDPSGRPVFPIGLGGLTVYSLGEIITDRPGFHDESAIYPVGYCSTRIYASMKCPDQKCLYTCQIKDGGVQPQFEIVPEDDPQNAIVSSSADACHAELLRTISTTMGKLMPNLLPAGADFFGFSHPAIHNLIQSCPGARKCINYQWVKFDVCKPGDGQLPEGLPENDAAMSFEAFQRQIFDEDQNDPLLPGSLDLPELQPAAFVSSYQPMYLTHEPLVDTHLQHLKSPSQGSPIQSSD
UniProt Q9Y4B6: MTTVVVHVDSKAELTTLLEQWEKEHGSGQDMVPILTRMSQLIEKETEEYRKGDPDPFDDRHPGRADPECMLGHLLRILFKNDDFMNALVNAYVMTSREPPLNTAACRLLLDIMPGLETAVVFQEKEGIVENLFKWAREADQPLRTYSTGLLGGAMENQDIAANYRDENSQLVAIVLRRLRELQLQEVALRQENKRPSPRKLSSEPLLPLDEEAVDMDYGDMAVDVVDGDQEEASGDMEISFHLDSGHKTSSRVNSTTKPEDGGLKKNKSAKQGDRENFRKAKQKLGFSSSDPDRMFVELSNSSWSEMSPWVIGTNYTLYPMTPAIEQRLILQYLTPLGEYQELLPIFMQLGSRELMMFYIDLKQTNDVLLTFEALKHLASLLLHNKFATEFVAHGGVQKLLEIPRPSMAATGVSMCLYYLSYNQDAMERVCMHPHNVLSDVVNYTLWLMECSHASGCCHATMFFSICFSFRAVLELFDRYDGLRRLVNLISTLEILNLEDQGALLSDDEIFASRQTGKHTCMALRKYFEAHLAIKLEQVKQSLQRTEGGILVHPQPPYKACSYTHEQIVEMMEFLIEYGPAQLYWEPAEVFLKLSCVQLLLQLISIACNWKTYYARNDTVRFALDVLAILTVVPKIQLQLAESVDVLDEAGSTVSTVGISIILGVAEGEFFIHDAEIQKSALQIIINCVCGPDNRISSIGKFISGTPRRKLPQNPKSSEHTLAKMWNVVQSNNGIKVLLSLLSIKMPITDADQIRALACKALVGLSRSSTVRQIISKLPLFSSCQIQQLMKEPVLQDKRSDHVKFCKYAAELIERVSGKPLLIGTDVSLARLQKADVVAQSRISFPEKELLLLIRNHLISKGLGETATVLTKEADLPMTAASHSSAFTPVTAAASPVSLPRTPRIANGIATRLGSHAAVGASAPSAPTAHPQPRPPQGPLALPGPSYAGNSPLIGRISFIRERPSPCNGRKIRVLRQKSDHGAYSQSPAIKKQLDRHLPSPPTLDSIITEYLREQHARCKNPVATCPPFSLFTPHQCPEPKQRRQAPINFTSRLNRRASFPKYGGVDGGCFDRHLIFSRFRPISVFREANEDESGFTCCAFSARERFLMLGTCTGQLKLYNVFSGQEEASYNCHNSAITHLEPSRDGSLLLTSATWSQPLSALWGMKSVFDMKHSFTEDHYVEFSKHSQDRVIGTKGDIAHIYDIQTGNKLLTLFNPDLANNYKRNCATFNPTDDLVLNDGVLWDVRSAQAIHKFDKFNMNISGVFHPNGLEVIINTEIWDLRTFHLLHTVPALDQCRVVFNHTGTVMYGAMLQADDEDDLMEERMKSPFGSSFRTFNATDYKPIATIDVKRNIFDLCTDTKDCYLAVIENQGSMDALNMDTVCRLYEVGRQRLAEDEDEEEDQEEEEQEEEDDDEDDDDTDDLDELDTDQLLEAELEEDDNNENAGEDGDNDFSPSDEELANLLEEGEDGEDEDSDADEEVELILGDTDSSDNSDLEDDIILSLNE

How the values were obtained:
Assay in all cases: human ORF protein microarray
TBRG1 (Homo sapiens) = TBRG1 (Homo sapiens) (UniProt Q3YBR2); settings: 5' phosphate, Domain array: 20 mM Tris-HCl pH 7.4, 200 mM KCl, 0.2 mM EDTA, 0.05% NP40, 2 ug/ul heparin, overnight 4 C. ORF array: PBS pH 7.0 with RNase inhibitor, 100 ng RNA, 1 h., recombinant protein, protein details: N-terminal GST-6xHis
TBX5 (Homo sapiens) = biological target: T1, TBX5 (Homo sapiens) (UniProt Q99593); settings: 5' phosphate, Domain array: 20 mM Tris-HCl pH 7.4, 200 mM KCl, 0.2 mM EDTA, 0.05% NP40, 2 ug/ul heparin, overnight 4 C. ORF array: PBS pH 7.0 with RNase inhibitor, 100 ng RNA, 1 h., recombinant protein, protein details: N-terminal GST-6xHis
T1 sequence (looked up, limits assumed): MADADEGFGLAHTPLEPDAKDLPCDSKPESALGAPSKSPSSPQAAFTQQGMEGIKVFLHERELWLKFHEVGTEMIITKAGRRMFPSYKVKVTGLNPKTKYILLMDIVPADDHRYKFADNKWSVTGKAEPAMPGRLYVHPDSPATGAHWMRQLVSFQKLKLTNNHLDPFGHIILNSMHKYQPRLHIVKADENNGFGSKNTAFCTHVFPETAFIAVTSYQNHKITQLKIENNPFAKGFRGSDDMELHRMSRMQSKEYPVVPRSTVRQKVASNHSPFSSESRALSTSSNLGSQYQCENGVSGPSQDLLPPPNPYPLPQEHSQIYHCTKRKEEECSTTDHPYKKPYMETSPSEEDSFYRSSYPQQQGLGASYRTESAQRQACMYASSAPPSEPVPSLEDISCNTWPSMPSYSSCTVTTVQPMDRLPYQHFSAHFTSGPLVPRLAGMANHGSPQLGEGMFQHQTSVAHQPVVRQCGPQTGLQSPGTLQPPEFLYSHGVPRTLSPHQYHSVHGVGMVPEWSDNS

GATS (Homo sapiens) = biological target: T2, GATS (Homo sapiens) (UniProt Q8NAP1); settings: 5' phosphate; Domain array: 20 mM Tris-HCl pH 7.4, 200 mM KCl, 0.2 mM EDTA, 0.05% NP40, 2 ug/ul heparin, overnight 4 C. ORF array: PBS pH 7.0 with RNase inhibitor, 100 ng RNA, 1 h.; recombinant protein; protein details: N-terminal GST-6xHis; label: internal DY647 at G18; letters put together from the description
T2 sequence (looked up, limits assumed): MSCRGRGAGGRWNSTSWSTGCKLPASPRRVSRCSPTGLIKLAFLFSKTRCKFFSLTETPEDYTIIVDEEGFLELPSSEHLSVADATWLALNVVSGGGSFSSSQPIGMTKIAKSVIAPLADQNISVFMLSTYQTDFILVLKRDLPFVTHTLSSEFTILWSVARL

VPRBP (Homo sapiens) = VPRBP (Homo sapiens) (UniProt Q9Y4B6); settings: 5' phosphate; Domain array: 20 mM Tris-HCl pH 7.4, 200 mM KCl, 0.2 mM EDTA, 0.05% NP40, 2 ug/ul heparin, overnight 4 C. ORF array: PBS pH 7.0 with RNase inhibitor, 100 ng RNA, 1 h.; recombinant protein; protein details: N-terminal GST-6xHis; label: internal DY647 at G18; letters put together from the description
DAK (Homo sapiens) = biological target: T3, DAK (Homo sapiens) (UniProt Q3LXA3); settings: 5' phosphate; Domain array: 20 mM Tris-HCl pH 7.4, 200 mM KCl, 0.2 mM EDTA, 0.05% NP40, 2 ug/ul heparin, overnight 4 C. ORF array: PBS pH 7.0 with RNase inhibitor, 100 ng RNA, 1 h.; recombinant protein; protein details: N-terminal GST-6xHis; label: internal DY647 at G18; letters put together from the description
T3 sequence (looked up, limits assumed): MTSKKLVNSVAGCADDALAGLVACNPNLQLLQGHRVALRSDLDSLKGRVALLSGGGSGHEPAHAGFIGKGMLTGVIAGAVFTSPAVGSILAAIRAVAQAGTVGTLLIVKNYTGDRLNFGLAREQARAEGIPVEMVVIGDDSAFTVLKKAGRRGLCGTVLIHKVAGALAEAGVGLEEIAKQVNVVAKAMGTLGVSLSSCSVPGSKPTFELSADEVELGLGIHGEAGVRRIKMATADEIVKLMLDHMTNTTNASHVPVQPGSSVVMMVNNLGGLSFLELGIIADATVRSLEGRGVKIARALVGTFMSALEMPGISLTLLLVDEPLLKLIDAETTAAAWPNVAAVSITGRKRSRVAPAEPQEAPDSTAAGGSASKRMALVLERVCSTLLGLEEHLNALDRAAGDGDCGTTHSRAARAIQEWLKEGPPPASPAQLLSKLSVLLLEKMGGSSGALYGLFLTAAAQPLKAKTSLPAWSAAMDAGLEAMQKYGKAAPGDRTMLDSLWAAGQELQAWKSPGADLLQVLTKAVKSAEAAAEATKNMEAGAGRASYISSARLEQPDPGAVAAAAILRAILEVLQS

DOK3 (Homo sapiens) = biological target: T4, DOK3 (Homo sapiens) (UniProt Q7L591); settings: 5' phosphate, Domain array: 20 mM Tris-HCl pH 7.4, 200 mM KCl, 0.2 mM EDTA, 0.05% NP40, 2 ug/ul heparin, overnight 4 C. ORF array: PBS pH 7.0 with RNase inhibitor, 100 ng RNA, 1 h., recombinant protein, protein details: N-terminal GST-6xHis
T4 sequence (looked up, limits assumed): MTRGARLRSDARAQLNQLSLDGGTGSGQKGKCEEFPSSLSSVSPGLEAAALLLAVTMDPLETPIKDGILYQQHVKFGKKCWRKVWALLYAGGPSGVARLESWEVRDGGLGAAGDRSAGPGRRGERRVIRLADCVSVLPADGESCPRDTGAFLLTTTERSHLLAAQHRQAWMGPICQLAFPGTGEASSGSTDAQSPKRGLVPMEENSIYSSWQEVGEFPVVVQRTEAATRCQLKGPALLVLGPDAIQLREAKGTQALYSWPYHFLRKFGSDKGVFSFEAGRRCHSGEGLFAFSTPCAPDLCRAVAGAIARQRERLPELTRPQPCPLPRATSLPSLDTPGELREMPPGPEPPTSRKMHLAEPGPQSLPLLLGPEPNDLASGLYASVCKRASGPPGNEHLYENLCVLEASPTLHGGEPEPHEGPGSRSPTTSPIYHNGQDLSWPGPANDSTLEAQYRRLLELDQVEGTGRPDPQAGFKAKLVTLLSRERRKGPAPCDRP

NARF (Homo sapiens) = biological target: T5, NARF (Homo sapiens) (UniProt Q9UHQ1); settings: 5' phosphate, Domain array: 20 mM Tris-HCl pH 7.4, 200 mM KCl, 0.2 mM EDTA, 0.05% NP40, 2 ug/ul heparin, overnight 4 C. ORF array: PBS pH 7.0 with RNase inhibitor, 100 ng RNA, 1 h., recombinant protein, protein details: N-terminal GST-6xHis
T5 sequence (looked up, limits assumed): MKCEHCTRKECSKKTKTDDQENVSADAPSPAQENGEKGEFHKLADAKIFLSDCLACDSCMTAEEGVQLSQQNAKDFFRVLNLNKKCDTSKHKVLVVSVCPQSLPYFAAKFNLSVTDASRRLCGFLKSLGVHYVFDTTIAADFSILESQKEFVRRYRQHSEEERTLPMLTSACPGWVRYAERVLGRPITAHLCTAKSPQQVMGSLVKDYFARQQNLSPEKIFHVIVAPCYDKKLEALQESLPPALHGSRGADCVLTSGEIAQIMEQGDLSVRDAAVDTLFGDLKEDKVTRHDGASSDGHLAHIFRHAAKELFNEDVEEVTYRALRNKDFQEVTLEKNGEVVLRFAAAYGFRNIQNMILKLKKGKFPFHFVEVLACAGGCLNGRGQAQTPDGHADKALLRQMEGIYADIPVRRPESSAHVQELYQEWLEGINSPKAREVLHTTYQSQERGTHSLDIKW

C8orf44 (Homo sapiens) = biological target: T6, C8orf44 (Homo sapiens) (UniProt Q96CB5); settings: 5' phosphate; amino-C6 U at position 18; Domain array: 20 mM Tris-HCl pH 7.4, 200 mM KCl, 0.2 mM EDTA, 0.05% NP40, 2 ug/ul heparin, overnight 4 C. ORF array: PBS pH 7.0 with RNase inhibitor, 100 ng RNA, 1 h.; recombinant protein; protein details: N-terminal GST-6xHis; label: internal Cy5 or DY647
T6 sequence (looked up, limits assumed): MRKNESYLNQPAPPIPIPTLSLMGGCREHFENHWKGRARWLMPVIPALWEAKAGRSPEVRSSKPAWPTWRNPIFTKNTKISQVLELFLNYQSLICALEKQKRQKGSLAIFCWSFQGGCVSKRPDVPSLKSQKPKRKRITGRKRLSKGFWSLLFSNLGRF

[1] = label: internal DY647 at G18, letters put together from the description
[2] = amino-C6 U at position 18, label: internal Cy5 or DY647

Measured: binding result

CAGUGCAAUGAUGAAAGGGCAU [miR-130b (internal labeling)]
binds: TBRG1 (Homo sapiens); [1] | TBX5 (Homo sapiens); [1] | GATS (Homo sapiens) | VPRBP (Homo sapiens) | DAK (Homo sapiens) | DOK3 (Homo sapiens); [1]

UAGCUUAUCAGACUGAUGUUGA [miR-21 (internal labeling)]
binds: NARF (Homo sapiens); [1]

UGAGGUAGUAGGUUGUGUGGUU [let-7b (internal labeling)]
binds: TBRG1 (Homo sapiens); [2] | C8orf44 (Homo sapiens) | TBX5 (Homo sapiens); [2] | NARF (Homo sapiens); [2] | DOK3 (Homo sapiens); [2]
